Results are given in words; binding and its absence hold for the method and conditions named. Binding seen in cells or lysates may run through a third protein. Binding can be weak; no strength is given. For part of these data: Tags and fused reporters may be left off the sequences shown.
Legend:
[1] = target: T1, Myc-tagged Tensin2 1-1409 (WT, wild-type) (UniProt Q63HR2); assay: co-IP; HEK293T co-transfected with Myc-tagged tensin and FLAG-tagged DLC1 (or GFP-tagged DLC2); cleared lysate in NET-N buffer (25 mM Tris-HCl pH 8.0, 50 mM NaCl, 0.2 mM EDTA, 0.1% NP40); anti-Myc antibody overnight at 4°C, protein-A sepharose, 5 washes; blot with anti-FLAG (anti-GFP for DLC2)
T1 sequence: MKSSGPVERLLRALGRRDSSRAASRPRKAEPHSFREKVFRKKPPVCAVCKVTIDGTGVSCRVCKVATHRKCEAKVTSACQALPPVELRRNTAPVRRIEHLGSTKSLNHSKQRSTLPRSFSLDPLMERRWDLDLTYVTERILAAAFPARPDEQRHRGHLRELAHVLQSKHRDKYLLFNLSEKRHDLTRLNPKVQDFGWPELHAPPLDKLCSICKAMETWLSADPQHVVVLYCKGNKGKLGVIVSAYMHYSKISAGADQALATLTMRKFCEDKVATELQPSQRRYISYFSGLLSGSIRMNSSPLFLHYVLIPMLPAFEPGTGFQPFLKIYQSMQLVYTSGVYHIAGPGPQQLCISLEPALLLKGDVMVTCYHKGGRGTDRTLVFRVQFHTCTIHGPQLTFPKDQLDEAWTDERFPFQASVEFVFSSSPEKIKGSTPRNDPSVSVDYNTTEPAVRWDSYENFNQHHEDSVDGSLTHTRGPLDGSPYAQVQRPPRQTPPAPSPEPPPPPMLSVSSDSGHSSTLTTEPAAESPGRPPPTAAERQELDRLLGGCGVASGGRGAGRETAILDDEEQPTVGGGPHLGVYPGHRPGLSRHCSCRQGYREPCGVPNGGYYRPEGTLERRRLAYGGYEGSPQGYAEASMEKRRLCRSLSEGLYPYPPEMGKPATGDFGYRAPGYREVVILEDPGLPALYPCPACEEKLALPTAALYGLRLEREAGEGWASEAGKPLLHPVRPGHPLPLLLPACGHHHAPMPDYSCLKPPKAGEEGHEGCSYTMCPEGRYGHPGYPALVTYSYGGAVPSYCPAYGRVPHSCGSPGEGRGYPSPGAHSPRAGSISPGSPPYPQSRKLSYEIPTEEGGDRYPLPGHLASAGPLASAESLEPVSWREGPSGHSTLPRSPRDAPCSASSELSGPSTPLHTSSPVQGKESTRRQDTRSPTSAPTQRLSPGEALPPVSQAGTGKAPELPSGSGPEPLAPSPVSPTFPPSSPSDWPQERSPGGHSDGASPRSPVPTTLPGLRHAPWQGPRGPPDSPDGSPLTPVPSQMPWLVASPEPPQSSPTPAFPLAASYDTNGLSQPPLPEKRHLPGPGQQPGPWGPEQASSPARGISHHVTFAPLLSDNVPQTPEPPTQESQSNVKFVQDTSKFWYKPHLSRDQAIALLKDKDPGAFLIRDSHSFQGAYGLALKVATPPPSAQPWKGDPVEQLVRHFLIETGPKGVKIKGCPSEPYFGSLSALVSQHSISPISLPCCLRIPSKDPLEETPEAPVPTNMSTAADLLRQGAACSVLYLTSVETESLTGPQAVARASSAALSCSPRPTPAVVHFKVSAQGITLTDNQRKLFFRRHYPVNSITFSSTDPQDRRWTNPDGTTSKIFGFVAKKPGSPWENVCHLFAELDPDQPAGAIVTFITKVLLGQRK

The chains behind the UniProt entries cited, without tags or fusion partners. Residues count along the entry.
UniProt Q9HBL0, residues 648-1839: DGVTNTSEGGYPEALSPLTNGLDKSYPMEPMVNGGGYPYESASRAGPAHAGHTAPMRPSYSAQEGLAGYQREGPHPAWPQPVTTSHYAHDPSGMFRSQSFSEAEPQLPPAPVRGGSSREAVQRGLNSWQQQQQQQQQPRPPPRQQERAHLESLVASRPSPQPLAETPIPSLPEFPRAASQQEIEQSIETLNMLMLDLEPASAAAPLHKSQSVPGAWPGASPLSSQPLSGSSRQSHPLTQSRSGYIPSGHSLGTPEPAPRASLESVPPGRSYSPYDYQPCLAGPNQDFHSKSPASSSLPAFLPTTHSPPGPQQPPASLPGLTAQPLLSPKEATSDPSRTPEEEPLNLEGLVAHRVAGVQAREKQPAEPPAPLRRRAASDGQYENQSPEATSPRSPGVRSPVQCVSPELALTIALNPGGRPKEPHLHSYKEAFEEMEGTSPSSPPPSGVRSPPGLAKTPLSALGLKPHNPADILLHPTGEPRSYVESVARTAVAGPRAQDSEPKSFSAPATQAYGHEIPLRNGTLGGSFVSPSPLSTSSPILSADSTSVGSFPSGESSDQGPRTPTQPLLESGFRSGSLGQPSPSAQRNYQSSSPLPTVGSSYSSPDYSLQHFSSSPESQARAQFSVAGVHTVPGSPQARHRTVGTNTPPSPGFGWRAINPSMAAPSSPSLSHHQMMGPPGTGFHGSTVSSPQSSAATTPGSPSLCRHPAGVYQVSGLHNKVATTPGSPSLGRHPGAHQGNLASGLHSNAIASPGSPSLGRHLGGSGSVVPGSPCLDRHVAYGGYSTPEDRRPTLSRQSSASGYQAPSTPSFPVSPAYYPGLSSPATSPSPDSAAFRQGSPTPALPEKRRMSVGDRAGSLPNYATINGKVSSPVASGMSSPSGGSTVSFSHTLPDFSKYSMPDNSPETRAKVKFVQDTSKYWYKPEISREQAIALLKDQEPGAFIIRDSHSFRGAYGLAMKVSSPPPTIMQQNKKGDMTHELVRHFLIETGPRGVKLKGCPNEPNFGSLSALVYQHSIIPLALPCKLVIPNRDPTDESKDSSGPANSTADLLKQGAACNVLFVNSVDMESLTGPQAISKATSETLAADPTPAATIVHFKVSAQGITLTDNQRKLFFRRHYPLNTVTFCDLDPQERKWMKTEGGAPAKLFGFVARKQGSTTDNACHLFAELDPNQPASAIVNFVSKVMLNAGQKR

[2] = target: Myc-tagged tensin1 C-terminus 648-stop (UniProt Q9HBL0); assay: as above

Substance	binding [1]	binding [2]
FLAG-tagged DLC1 1-400 (from UniProt Q96QB1-1) (domain or fragment)	binds	–
FLAG-tagged DLC1 FL (Deleted in liver cancer 1, wild-type) (from UniProt Q96QB1-1)	binds	binds

Reference: paper PMC2680019
